# Experimental data reported in PubChem BioAssay AID1347076 (National Center for Advancing Translational Sciences (NCATS), 2019).
# The whole screen tested about 400,000 compounds, of which about 13,000 (3.2%) were called active. The shares of active, inactive and inconclusive entries below differ from those in the screen. The call rests on the fitted dose curve; in most records, active means well fitted cell-killing curve with a large enough effect; inconclusive means small, poorly fitted or top-dose-only effect, or effect the other way; inactive means flat fitted curve, though single readings scatter. Where the call is inconclusive, the potency comes from a doubtful curve fit.
# Assay: qHTS assay for MDR1-selective chemotherapeutics: Primary screen using the drug-selected MDR subline cells KB-V1; further: nearly all actives have a fitted effect of over 60% in size
# Conditions: KB-V1 MDR cells viability, CellTiter-Glo, 72 h; activity change, negative = cytotoxicity: at 46.1 µM (top of the series)
# Outline: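 qHTS viability screen in drug-selected KB-V1 MDR cells: 72 h compound treatment at 37 degrees C, ATP luminescence end point.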
# On the % scale 0 is the no-effect control and ±100 the full control effect; potency means the concentration at half of the fitted maximal effect.
Structure (SMILES),Potency,"activity change, negative = cytotoxicity"
O=C(NC(=S)Nc1ccccc1Cl)c1cncc(Br)c1,inactive,
COc1ccc(OC)c(Nc2cc(C)nc3ccc(C)cc23)c1,active: 5.17 µM,
COc1cc(C(=O)c2cc3c(cc2C)OCO3)cc(OC)c1OC,active: 0.411 µM,
COC(=O)CCn1nnc(-c2cccs2)n1,"inconclusive: 13 µM [rising, partial curve]",
CCOC(=O)c1sc(C)c(C(=O)NCCCN2CCOCC2)c1N,inactive,
CCOC(=O)c1sc2nc(CSc3ccccc3)[nH]c(=O)c2c1C,"inconclusive: 18.4 µM [cytotoxic, partial curve]",
COCCNC(=O)CCCCCN1C(=O)CCC1=O,inactive,
O=C(NNC(=O)c1cc2c(s1)CCCC2)c1ccccc1,inactive,
Cc1ccc(CN(C)C(=O)c2cccc(S(=O)(=O)N3CCc4ccccc4C3)c2)o1,inactive,
Nc1c(Cl)cc(C2=NCCn3nc4ccccc4c32)cc1Cl,active: 20.6 µM,
O=S1(=O)CCN(Cc2cccnc2)CC1,inactive,
CC1(C(=O)NS(=O)(=O)c2ccc(F)cc2F)CCN1C(=O)c1ccc(C2CCCCC2)cc1 (configuration not stated),"inconclusive: 18.4 µM [rising, partial curve, poor fit]",
C=CCNC(=O)CN1C(=O)c2cccc3cccc1c23,inactive,
CCOC(=O)C1=C[C@]2(CC)CCCN3CCc4c(n1c1ccccc41)[C@@H]32,"inconclusive: 4.61 µM [cytotoxic, partial curve]",
CC(C)CC(c1nnnn1Cc1cccs1)N1CCN(c2nc3ccccc3s2)CC1 (configuration not stated),"inconclusive: 16.4 µM [cytotoxic, partial curve]",
COc1ccc(S(=O)(=O)c2nnn(-c3ccc(C(C)C)cc3)c2C)cc1,"inconclusive: 29.1 µM [cytotoxic, single point]",
CC(=O)N1CCN(Cc2nc3cc(NC(=O)c4ccc(Cl)cc4)ccc3n2C)CC1,"inconclusive: 29.1 µM [rising, single point]",
CCOC(=O)CCc1nc2ccccc2[nH]c1=O,inactive,
CCN(CC)S(=O)(=O)c1cccc(C(=O)Oc2cccnc2)c1,"inconclusive: 0.0164 µM [rising, full curve]",
COc1ccccc1CCN1CCCC(CN(C)C(=O)CCC(=O)N(C)C)C1 (configuration not stated),"inconclusive: 18.4 µM [rising, single point]",
COC(=O)Nc1ccc(S(=O)(=O)Nc2ccc(O)cc2)cc1,"inconclusive: 29.1 µM [cytotoxic, single point]",
CC(C)(C)c1ccc(C(=O)/C=C2\NC(=O)CS2)cc1,"inconclusive: 20.6 µM [cytotoxic, single point]",
O=C(c1cccc(S(=O)(=O)N2CCOCC2)c1)N1CCN(c2ccccc2)CC1,active: 18.4 µM,
Nc1ccc(N2CCCCC2)c(S(=O)(=O)Nc2ccc(Cl)cc2)c1,"inconclusive: 20.6 µM [cytotoxic, single point]",

Structure (SMILES),Potency,"activity change, negative = cytotoxicity"
COC(=O)[C@@H](NC(=O)N1CCN(C(=O)C2COc3ccccc3O2)CC1)C(C)C (some centres not stated),"inconclusive: 4.61 µM [rising, full curve, poor fit]",
COc1cc(C)c(NC(=S)NCCCN2CCOCC2)cc1OC,inactive,
CCOC(=O)CC1COCCN1C(=O)c1cc(COc2ccc(F)c(F)c2)on1 (configuration not stated),,inconclusive: -32.7% [cytotoxic]
Cc1ccc(C)c(N(C)C(=O)Cc2c(C(=O)O)[nH]c3ccc(Cl)cc23)c1,"inconclusive: 14.6 µM [rising, partial curve]",
CCOc1ccc2nc(SCC(=O)NCc3ccco3)sc2c1,"inconclusive: 23.1 µM [cytotoxic, single point]",
Cc1ccc(S(=O)(=O)N2CCCC2C(=O)N(C)Cc2cccs2)cc1 (configuration not stated),active: 20.6 µM,
CC(C)N(C)CCOC(=O)C1COc2ccccc2O1 (configuration not stated),"inconclusive: 1.64 µM [cytotoxic, partial curve, poor fit]",
CO/N=C(/CS(=O)(=O)c1ccc(C)cc1)c1ccc(OC)cc1,"inconclusive: 23.1 µM [cytotoxic, partial curve, poor fit]",
Cc1cc(N2CCN(C)CC2)nc2ccc(NC(=S)N3CCCCC3)cc12,inactive,
CC(=O)N/C(=C\c1ccccc1)C(=O)OCC(=O)Nc1ccc(C)c(S(=O)(=O)N(C)C)c1,"inconclusive: 11.6 µM [rising, partial curve, poor fit]",
COc1ccc(-c2cc(C(=O)Nc3cc(OC)c(OC)c(OC)c3)no2)cc1OC,"inconclusive: 0.461 µM [cytotoxic, full curve]",
COc1ccc(CN2CCN(c3ccccn3)CC2)cc1OCc1ccccc1,active: 9.2 µM,
COc1ccc(C2C(C(=O)Nc3ccc(C)cc3C)=C(C)Nc3nc(SCc4cccc(C)c4)nn32)c(OC)c1 (configuration not stated),"inconclusive: 29.1 µM [rising, single point]",
CCN1CCN(c2cc(C)c3cc(NC(=S)NCCCN4CCc5ccccc5C4)ccc3n2)CC1,inactive,
COc1cccc(CNC(=O)CN2C(=O)N(c3cccc(Cl)c3)S(=O)(=O)c3ccccc32)c1OC,inactive,
Cc1c(CN2CCC(CO)(CCOc3ccccc3)CC2)[nH]c2ccc(Cl)cc12,active: 5.8 µM,
CCC1(C)Nc2ccccc2C(=O)N1O (configuration not stated),"inconclusive: 29.1 µM [cytotoxic, single point]",
COc1ccccc1-c1nn2c(=O)cc(CN3CCN(C(=O)/C=C/c4ccccc4)CC3)nc2s1,inactive,
CCc1ccc(C(O)(CC(C)C)C(CN2CCOCC2)c2ccccc2)cc1 (configuration not stated),"inconclusive: 29.1 µM [cytotoxic, single point]",
CCOc1ccc2nc(NS(C)(=O)=O)sc2c1,"inconclusive: 23.1 µM [cytotoxic, single point]",
CC(CCc1ccccc1)NC(=O)c1cccc(F)c1 (configuration not stated),"inconclusive: 16.4 µM [cytotoxic, single point]",
N#C/C(=C\c1ccc(O)c([N+](=O)[O-])c1)c1nc2ccccc2s1,"inconclusive: 16.4 µM [cytotoxic, single point]",
COc1ccc(NC(=O)c2cc([N+](=O)[O-])ccc2N2CCCCC2)cc1,"inconclusive: 10.3 µM [cytotoxic, partial curve, poor fit]",

# Taken from the listing (3 entries):
Structure (SMILES),Potency,"activity change, negative = cytotoxicity"
CCN(CC)S(=O)(=O)c1cccc(C(=O)Oc2cccnc2)c1,"inconclusive: 0.0164 µM [rising, full curve]",
COc1ccccc1CCN1CCCC(CN(C)C(=O)CCC(=O)N(C)C)C1 (configuration not stated),"inconclusive: 18.4 µM [rising, single point]",
COC(=O)Nc1ccc(S(=O)(=O)Nc2ccc(O)cc2)cc1,"inconclusive: 29.1 µM [cytotoxic, single point]",
